Some entries share one result that the patent states for a list of compounds.
Experiments:
Assay type in all cases: cell-based, human
[1] = system: imatinib resistant CML K562R cells; test: MTT cell viability assay on imatinib resistant CML K562R cells; conditions: 20 μM
[2] = system: imatinib resistant CML K562R cells; test: Cell cycle analysis (flow cytometry) of imatinib resistant CML K562R cells; conditions: summary of Table 1
Description: The CML cell line, K562R, was cultured in the presence of a continuous low dose of imatinib mesylate, which is also termed STI-571, to generate their resistance to imatinib. In operation, K562R cells were maintained in the DMEM supplemented with 10% fetal calf serum (FCS), 100 IU/ml penicillin, 100 μg/ml streptomycin, 2 mM glutamine and 0.2 μM imatinib in 5% CO2 at 37° C.
(§1) The fixed cells were then warmed up to room temperature and treated with RNAase A for about 30 min. Precipitated cells were collected by centrifugation and re-suspended in a buffer solution containing propidium iodine (20 μg/ml) before being subject to flow cytometry analysis, where cell numbers at respective cell cycles were determined.
The imatinib resistant human chronic myelogenous leukemia (CML) cell line K562R was induced by procedures described above in the “Materials and Methods” Section. Anti-proliferative activity of I7557 and I7557 were respectively assessed by cell viability and cell cycle analysis, as well as by immunoblot and Liu's Staining.

PANC-1 cells [3] = test: Cell viability assay on PANC-1 cells; conditions: PANC-1, 20 μM, data not shown
PANC-1 cells [4] = test: Cell cycle analysis of PANC-1 cells; conditions: PANC-1, 24 hours, Table 2
Description: as §1

SEG-1 cells = test: Cell viability assay on SEG-1 cells; conditions: SEG-1, 20 μM, data not shown
81T/VGH cells = test: MTT cell viability assay on 81T/VGH cells; conditions: 20 μM, 48 hours
Description: Cell lines used in the present disclosure include human chronic myelogenous leukemia (CML) cell line K562, Imatinib-resistant K562 cell line K562R, human pancreatic carcinoma, epithelial-like cell line PANC-1, human pancreatic cancer cell line BxPc-3, human large cell lung cancer cell line SEG-1, human esophageal squamous cell carcinoma line 81T/VGH and human esophageal adenocarcinoma line BE-3. Each cell lines were cultured and maintained in Dulbecco's modified Eagle media (DMEM) supplemented with 10% fetal calf serum, 100 IU/ml penicillin, 100 μg/ml streptomycin, and 2 mM glutamine in 5% CO2 at 37° C.
The absorbance of the solution at 570 nm was measured by spectrophotometer.

**Q.** With `CS(=O)(=O)CCCCCCN=C=S` [I7557, 6-methylsulfonylhexyl isothiocyanate] as the compound, how does the “drug resistant CML cell number reduced to % of that of the control” value [1] read?
**A.** Its value is “at least 65%”.

**Q.** And the “CML cells arrested at G2/M phase” value [2]?
**A.** The value was “at least 60%”.

**Q.** What about the “reduction of cancerous cell number vs control cells” value (from here on “reduction of cancerous cell number”) (PANC-1 cells [3]) of the same compound?
**A.** The value was “at least 50%”.

**Q.** And the “cells arrested at G2/M phase” value (PANC-1 cells [4])?
**A.** The value was “at least 50%”.

**Q.** And the “reduction of cancerous cell number” value (SEG-1 cells)?
**A.** The value was “at least 70%”.

**Q.** What about the “reduction of cancerous cell number” value (81T/VGH cells) of the same compound?
**A.** The value was “at least 50%”.

— patent US8691870B2, “Use of isothiocyanates for treating cancer” (Mackay Memorial Hospital, priority 2011, dated 2014)
